Among the data in article PMC9916724 are binding values, retold here.

By UniProt entry, the sequences of proteins in these tests, tags left out. Residues count along the entry.
UniProt P11021, residues 19-654: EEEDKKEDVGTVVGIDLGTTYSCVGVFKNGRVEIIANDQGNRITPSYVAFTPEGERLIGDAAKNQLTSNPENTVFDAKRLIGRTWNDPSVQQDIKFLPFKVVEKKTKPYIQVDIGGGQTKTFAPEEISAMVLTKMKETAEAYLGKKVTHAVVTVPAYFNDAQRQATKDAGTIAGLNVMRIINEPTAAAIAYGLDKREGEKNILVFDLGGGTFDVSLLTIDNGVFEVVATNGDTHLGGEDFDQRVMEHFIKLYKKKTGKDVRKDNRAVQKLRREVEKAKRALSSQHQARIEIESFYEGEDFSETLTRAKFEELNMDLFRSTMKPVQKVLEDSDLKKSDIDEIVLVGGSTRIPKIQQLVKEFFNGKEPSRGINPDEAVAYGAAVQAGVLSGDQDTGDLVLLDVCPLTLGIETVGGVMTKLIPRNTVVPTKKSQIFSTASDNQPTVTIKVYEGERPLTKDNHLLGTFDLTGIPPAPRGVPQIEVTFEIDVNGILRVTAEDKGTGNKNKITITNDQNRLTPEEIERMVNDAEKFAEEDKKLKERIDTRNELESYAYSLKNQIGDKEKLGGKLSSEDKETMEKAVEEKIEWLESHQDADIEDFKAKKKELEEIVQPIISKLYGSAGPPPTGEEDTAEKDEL

These are yes or no findings as the source states them, for the method shown. In cells and extracts the contact can be indirect. Some binding calls cover weakened binding; strength is not graded here.

This experiment concerns the target GRP78 (human (endogenous in cultured human podocytes)) (UniProt P11021). Put plainly: co-IP; human podocytes lysed in IP lysis buffer; immunoprecipitation with anti-GRP78 or anti-αvβ5 overnight at 4 °C, protein G-Sepharose beads 1 h at 4 °C; immunoblot with anti-ISM; basal conditions; negative control with unspecific antibody. (In general: Immunoblotting shows a protein as a band on a membrane.)

B1: Isthmin-1 (ISM1) (protein, UniProt B1AKI9 30-464)
chain: ADGPDAAAGNASQAQLQNNLNVGSDTTSETSFSLSKEAPREHLDHQAAHQPFPRPRFRQETGHPSLQRDFPRSFLLDLPNFPDLSKADINGQNPNIQVTIEVVDGPDSEADKDQHPENKPSWSVPSPDWRAWWQRSLSLARANSGDQDYKYDSTSDDSNFLNPPRGWDHTAPGHRTFETKDQPEYDSTDGEGDWSLWSVCSVTCGNGNQKRTRSCGYACTATESRTCDRPNCPGIEDTFRTAATEVSLLAGSEEFNATKLFEVDTDSCERWMSCKSEFLKKYMHKVMNDLPSCPCSYPTEVAYSTADIFDRIKRKDFRWKDASGPKEKLEIYKPTARYCIRSMLSLESTTLAAQHCCYGDNMQLITRGKGAGTPNLISTEFSAELHYKVDVLPWIICKGDWSRYNEARPPNNGQKCTESPSDEDYIKQFQEAREY
As to B1, the binding entry is recorded as “binds”.
